Columns and labels:
LPS micelles [1] = experiment: Tryptophan fluorescence blue shift in LPS micelles; design: species or system Pseudomonas aeruginosa; conditions: 10 μM peptide, 0.8 mg/mL LPS, overnight, 10 mM Tris 10 mM NaCl pH 7.4; ex 280 nm, em 300-400 nm; baseline in aqueous solution 350 nm
LPS micelles [2] = experiment: Acrylamide quenching of Trp fluorescence in LPS micelles (Stern-Volmer); design: species or system Pseudomonas aeruginosa; conditions: 10 μM peptide, 0.8 mg/mL LPS, acrylamide in 0.1 M increments; ex 295 nm, em 310-400 nm (AUC); values closer to 1.0 = greater insertion; average of n = 3

Substance	λMF, wavelength of peak Trp fluorescence in the presence of LPS micelles (LPS micelles [1])	m (F0/F), Stern-Volmer slope for acrylamide quenching in the presence of LPS micelles (LPS micelles [2])
H-WAKKAAKIGAKLLPSVVKLFKGSGQ-NH2 [PonAmp 2A]	336 nm	3.8
H-WAGSAAIGAALPSVVGLFQKKKKKK-NH2 [PonC 3A]	346 nm	5.6
H-WAGSAAIGAALPSVVGAFQKKKKKK-NH2 [PonC 4A]	346 nm	5.8
H-WLKKALKIGAKLLPSVVKLFKGSGQ-NH2 [PonAmp]	334 nm	4.7
H-KKKKKKWAGSAAIGAALPSVVGAFQ-NH2 [PonN 4A]	336 nm	3.7
H-KKKKKKWAGSAAIGALLPSVVGLFQ-NH2 [PonN 2A]	330 nm	3.2
H-WLGSALKIGAKLLPSVVGLFKKKKQ-NH2 [Ponericin W1, reference compound]	338 nm	5.9
H-WAKKAAKIGAKALPSVVKAFKGSGQ-NH2 [PonAmp 4A]	336 nm	3.9
H-WLGSALIGALLPSVVGLFQKKKKKK-NH2 [PonC]	335 nm	3.8
H-WAKKAAKIGAKALPSVVKLFKGSGQ-NH2 [PonAmp 3A]	336 nm	4.5
H-WAGSAAIGALLPSVVGLFQKKKKKK-NH2 [PonC 2A]	346 nm	5.8
H-KKKKKKWLGSALIGALLPSVVGLFQ-NH2 [PonN]	326 nm	3.4
